{"source": "patent US20040097598A1", "about": "(priority 2001, published 2004)", "system": "MES seizure", "assay": "maximal electroshock (MES) seizure test", "type": "in vivo", "details": "ratio TD50 (rotorod)/ED50 (MES), mice", "experimental": "Male CF-1 mice, weighing 28-30 g, were used as subjects (Charles River Canada, La Prairie, Quebec, Canada). Three to five subjects per drug dose were used to prescreen each compound for anticonvulsant activity. Prescreening involved injecting subjects with the drug at doses of 3, 6 mmol/kg and assessing activity and toxicity 30 min later. Promising compounds progressed to dose-response studies, which employed at least 50 subjects, 10 subjects per dose.\nCompounds were dissolved in oil and injected intraperitoneally.\nThirty minutes after drug injection, the MES seizure test was administered. We used the procedure of Krall et al. (1978). In brief, a seizure was induced using the electrical current applied via corneal electrodes. The current was set to 50 mA with a 60 Hz sine wave pulse configuration and train duration of 0.2 sec. Seizure protection was defined in this model as a failure to extend the hind limbs to an angle greater than 90 degrees during the tonic period of the convulsion.\nData analysis was performed using GraphPad Prizm software package version 3.02 for Windows (GraphPad Software Inc, San Diego, Calif., USA). Both dose-response and toxicity data were fitted using non-linear sigmoidal dose-response model with variable slope: Y=Bottom+(Top-Bottom)/(1+10^((LogED50—X)*HillSlope)), where Bottom, Top, HillSlope and ED50 were the fitting parameters, X was the logarithm of drug concentration, and Y was the response parameter. ED50 and TD50, which are the concentrations that give a response in 50% subjects in seizure and toxicity tests, were determined as best-fit values. Therapeutic index (TI) was calculated as a ratio of TD50/ED50.", "note": "Some entries share one result that the patent states for a list of compounds. Some ranges recur; such a range may be that of the whole group of compounds.", "data": [{"compound": "CCCCCCC(C)=O", "note": "[2-Octanone]", "values": [{"measurement": "TI (therapeutic index)", "setting": "listed as 2-octanone", "value": "1.7-1.8"}]}, {"compound": "CCCCC(C)=O", "note": "[2-Hexanone]", "values": [{"measurement": "TI (therapeutic index)", "setting": "listed as 2-hexanone", "value": "1.7-1.8"}]}, {"compound": "2-Butanone", "values": [{"measurement": "TI (therapeutic index)", "setting": "listed as 2-butanone", "value": "1.7-1.8"}]}]}
